Measured values as given in publication PMC11109619.
These are yes or no findings as the source states them, for the method shown. Binding seen in cells or lysates may run through a third protein. Some binding calls cover weakened binding; strength is not graded here.

By UniProt entry, the sequences of proteins in these tests, tags left out.
UniProt P25490: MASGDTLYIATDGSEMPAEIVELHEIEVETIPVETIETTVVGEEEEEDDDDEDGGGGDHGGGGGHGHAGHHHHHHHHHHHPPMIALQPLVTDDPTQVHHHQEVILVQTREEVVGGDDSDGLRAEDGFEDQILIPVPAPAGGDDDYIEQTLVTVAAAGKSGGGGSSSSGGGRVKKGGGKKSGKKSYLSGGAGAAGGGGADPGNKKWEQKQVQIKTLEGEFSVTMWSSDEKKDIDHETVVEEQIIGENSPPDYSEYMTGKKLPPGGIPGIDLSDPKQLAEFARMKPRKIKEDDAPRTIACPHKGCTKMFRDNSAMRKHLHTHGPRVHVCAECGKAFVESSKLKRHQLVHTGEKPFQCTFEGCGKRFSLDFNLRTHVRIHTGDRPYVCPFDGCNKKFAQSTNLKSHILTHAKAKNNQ
UniProt Q09472: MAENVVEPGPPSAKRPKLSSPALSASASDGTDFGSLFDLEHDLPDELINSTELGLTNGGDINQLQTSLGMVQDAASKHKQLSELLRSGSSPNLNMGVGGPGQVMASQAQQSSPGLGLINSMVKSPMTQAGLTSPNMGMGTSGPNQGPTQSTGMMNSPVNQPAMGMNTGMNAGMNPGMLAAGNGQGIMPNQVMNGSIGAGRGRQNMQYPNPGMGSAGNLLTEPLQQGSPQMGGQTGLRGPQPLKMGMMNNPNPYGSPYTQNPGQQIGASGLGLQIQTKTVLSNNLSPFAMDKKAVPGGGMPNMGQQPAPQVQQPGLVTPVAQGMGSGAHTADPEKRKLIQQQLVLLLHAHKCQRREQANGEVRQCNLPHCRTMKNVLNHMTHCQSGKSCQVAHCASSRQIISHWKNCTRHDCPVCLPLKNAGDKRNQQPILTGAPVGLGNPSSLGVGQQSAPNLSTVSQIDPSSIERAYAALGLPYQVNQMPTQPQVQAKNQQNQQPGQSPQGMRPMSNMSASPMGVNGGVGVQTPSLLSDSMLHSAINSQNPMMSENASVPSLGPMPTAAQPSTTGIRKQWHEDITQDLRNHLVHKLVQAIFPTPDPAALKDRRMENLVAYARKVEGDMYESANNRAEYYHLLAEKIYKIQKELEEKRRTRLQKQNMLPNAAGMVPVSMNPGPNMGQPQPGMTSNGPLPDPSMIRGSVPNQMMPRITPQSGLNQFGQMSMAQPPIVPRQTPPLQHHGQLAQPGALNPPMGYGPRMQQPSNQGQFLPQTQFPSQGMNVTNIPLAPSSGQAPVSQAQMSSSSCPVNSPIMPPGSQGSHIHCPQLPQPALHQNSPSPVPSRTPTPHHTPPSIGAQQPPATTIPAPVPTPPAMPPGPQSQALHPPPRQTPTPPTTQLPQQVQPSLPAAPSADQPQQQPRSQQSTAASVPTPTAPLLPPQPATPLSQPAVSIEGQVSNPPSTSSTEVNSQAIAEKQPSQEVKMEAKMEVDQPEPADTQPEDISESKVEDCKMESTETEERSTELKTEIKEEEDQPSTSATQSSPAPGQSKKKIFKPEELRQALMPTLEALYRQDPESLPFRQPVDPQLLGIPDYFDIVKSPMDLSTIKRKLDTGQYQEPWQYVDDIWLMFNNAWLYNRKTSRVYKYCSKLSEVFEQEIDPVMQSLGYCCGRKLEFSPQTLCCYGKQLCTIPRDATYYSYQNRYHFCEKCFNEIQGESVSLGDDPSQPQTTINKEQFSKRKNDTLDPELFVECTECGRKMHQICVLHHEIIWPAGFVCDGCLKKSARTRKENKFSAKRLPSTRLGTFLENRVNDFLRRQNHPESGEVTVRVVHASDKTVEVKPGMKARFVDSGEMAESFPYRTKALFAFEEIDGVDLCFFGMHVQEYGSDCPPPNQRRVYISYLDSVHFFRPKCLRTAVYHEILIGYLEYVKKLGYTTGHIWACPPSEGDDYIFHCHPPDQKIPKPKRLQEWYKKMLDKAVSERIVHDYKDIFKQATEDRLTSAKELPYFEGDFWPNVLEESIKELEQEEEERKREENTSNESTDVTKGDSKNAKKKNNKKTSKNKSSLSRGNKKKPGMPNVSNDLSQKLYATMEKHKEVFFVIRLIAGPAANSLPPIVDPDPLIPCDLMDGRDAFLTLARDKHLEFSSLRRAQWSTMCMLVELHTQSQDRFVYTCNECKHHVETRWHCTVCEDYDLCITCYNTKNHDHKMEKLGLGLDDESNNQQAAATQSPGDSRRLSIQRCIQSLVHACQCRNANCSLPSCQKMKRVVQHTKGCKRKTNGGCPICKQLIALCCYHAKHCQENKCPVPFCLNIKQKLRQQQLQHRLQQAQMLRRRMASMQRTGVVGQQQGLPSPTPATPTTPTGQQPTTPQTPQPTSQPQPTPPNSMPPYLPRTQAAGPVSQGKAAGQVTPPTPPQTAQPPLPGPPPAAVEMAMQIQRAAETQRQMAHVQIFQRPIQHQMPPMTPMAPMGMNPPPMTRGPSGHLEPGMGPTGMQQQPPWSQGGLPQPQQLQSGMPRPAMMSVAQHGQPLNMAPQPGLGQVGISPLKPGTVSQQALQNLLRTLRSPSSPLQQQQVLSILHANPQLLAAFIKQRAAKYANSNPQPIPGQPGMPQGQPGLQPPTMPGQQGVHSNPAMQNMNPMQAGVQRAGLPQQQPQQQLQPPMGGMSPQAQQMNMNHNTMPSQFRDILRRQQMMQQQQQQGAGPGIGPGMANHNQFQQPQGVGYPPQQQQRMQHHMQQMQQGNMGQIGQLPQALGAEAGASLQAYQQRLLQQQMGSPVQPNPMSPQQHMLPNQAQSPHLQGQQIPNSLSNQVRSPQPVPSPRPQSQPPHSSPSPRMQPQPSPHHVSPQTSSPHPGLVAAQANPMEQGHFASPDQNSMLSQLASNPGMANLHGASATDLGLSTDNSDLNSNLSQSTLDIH

Molecular target: Yin-Yang 1 (YY1) (human (endogenous in HMC3)) (UniProt P25490)
Assay: co-IP; HMC3 cells treated with LPS+IFN-γ for 24 h; lysates incubated with antibodies (YY1, Cell Signaling; p300, Santa Cruz) for 12 h at 4 °C, protein A/G beads 2 h, extensive washing; YY1 and p300 detected by Western blotting

- binding: binds
Substance: p300 (from UniProt Q09472 1-2414)
